Some of these results come from one statement about several compounds together. At least one structure is not confirmed: it was looked up by name or label, or the drawing left a doubt.
Tested on: PR8 virus
Format: cell-based, influenza virus
Conditions: 4 HAU virus, 37° C. 30 minutes, cRBC

## CC(=O)N[C@H]1[C@H]([C@H](O)[C@H](O)CO)O[C@@](O[C@H]2[C@@H](O)[C@@H](CO)O[C@@H](O[C@H]3[C@H](O)[C@@H](O)C(O)O[C@@H]3CO)[C@@H]2O)(C(=O)O)C[C@@H]1O (stereo partly shown) [3′-SL, 3′-sialyllactose]
  KiHAI: no inhibition of hemagglutination at highest concentration used: > 2 mM

From US11957697B2, “Viral receptor bound with sialic acid compounds” (priority 2020, dated 2024)
